Measurements reported in PubChem BioAssay AID1259290 (Sanger Institute, 2017).

Purpose: 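Kinases whose loss kills colorectal cancer cells alone or alongside targeted drugs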 (primary screen)
Cell system: human SNUC1 colorectal cancer cells
Knock-down reagent: siRNA pool against human genes
Challenge: anchor drugs BYL719 1 µM, cetuximab 5 µg/ml or trametinib 10 nM, or DMSO vehicle alone
Read-out: 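Cell viability relative to a non-targeting siRNA control, replicate-averaged, as robust z-score for knock-down alone, plus a synergy score for each anchor drug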
Scale: viability z-score, siRNA alone: higher = more viable cells; low values mean essential gene; viability vs control, siRNA alone: higher = more viable cells
Rule for the call: 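a knock-down without drug scoring a robust z under -3 counts as essential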
Calls: active = essential: knock-down alone cut viability (z below -3); inactive = no clear viability loss with knock-down alone
Here is a random part of 794 reagents tested. 9 of them (1.1%) were called active. 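Calls rest on knock-down alone, not drug synergy; synergy above 0.15 was grouped apart and does not affect calls.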 Unmarked entries are inactive. No viability above 1 is reported: the scale is capped. Not all columns of the deposit are shown. Not given: the amount of reagent, the time to read-out.

SGK3 [SID56478777]
- viability z-score, siRNA alone: 0.936
- viability vs control, siRNA alone: 1

MAP3K8 [SID56478664]
- viability z-score, siRNA alone: 0.936
- viability vs control, siRNA alone: 1

MAP3K10 [SID56478692]
- viability z-score, siRNA alone: 0.464
- viability vs control, siRNA alone: 0.957

ACVR1C [SID135620908]
- viability z-score, siRNA alone: 0.936
- viability vs control, siRNA alone: 1

PRKX [SID152149946]
- viability z-score, siRNA alone: -0.892
- viability vs control, siRNA alone: 0.835

DGUOK [SID152155858]
- viability z-score, siRNA alone: -0.0187
- viability vs control, siRNA alone: 0.914

ADCK2 [SID56478993]
- viability z-score, siRNA alone: -0.185
- viability vs control, siRNA alone: 0.899

PRKG2 [SID56478832]
- viability z-score, siRNA alone: -1
- viability vs control, siRNA alone: 0.825

2 entries from above, reformatted:
| target | PubChem SID | viability z-score, siRNA alone | viability vs control, siRNA alone |
| --- | --- | --- | --- |
| DGUOK | SID152155858 | -0.0187 | 0.914 |
| ADCK2 | SID56478993 | -0.185 | 0.899 |

The listing continues:
RBM10 [SID134313901]
- viability z-score, siRNA alone: 0.846
- viability vs control, siRNA alone: 0.992

DCLK3 [SID152149137]
- viability z-score, siRNA alone: -0.392
- viability vs control, siRNA alone: 0.88

GTF2H1 [SID56479243]
- viability z-score, siRNA alone: -1.12
- viability vs control, siRNA alone: 0.815

GK [SID56479100]
- viability z-score, siRNA alone: -0.643
- viability vs control, siRNA alone: 0.858
